Earlier results as cited in US5204311A, “Ethanediimidic acid bis[(arylalkylidene)hydrazide] color-formers” (Minnesota Mining and Manufacturing Company, priority 1991, dated 1993).
At least one structure is not confirmed: it was looked up by name or label, or the drawing left a doubt.

Conditions: background art; cited from earlier work

Q: For `CCCCCCCC(=O)OCCNC(=S)C(=S)NCCOC(=O)CCCCCCC` [A, N,N'-di(2-octanoyloxyethyl)diethiooxamide], which “image color with metal” value is on record?
A: The value was “blue-purple”.
